For 2 substances, binding results are on record in patent US20050288488A1, “Ah receptor cDNA and genetically engineered cells for detecting agonists to the Ah receptor” (Northwestern University, priority 1993, published 2005).

Protein sequences, listed by entry. Tags and fused reporters are not part of them. Lines headed by an entry give the natural chain unless they say otherwise; changes in a name come on top. Chains listed by the source or under a name are the forms on record and can include a tag or linker.
human Ah receptor nuclear translocator (ARNT) (P27540, form named): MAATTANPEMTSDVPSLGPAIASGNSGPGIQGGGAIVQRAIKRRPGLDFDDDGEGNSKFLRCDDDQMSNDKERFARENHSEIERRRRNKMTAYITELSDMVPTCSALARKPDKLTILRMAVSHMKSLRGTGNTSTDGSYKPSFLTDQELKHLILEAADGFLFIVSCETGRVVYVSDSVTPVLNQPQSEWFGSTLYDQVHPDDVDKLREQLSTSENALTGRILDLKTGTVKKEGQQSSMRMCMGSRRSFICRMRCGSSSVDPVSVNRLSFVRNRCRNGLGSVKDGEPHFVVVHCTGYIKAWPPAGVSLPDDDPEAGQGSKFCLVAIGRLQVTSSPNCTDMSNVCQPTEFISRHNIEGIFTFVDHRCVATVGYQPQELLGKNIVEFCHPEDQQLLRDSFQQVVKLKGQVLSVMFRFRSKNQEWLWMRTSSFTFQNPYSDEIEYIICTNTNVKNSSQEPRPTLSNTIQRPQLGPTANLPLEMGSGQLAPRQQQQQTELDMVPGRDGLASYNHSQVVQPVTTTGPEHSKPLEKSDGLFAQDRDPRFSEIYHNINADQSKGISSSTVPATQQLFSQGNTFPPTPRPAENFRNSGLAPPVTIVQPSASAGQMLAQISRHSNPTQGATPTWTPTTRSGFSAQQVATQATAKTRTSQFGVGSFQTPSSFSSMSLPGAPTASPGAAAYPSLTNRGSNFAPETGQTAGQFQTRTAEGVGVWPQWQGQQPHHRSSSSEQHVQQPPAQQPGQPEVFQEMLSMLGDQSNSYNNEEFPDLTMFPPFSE
UniProt Q8R4S5: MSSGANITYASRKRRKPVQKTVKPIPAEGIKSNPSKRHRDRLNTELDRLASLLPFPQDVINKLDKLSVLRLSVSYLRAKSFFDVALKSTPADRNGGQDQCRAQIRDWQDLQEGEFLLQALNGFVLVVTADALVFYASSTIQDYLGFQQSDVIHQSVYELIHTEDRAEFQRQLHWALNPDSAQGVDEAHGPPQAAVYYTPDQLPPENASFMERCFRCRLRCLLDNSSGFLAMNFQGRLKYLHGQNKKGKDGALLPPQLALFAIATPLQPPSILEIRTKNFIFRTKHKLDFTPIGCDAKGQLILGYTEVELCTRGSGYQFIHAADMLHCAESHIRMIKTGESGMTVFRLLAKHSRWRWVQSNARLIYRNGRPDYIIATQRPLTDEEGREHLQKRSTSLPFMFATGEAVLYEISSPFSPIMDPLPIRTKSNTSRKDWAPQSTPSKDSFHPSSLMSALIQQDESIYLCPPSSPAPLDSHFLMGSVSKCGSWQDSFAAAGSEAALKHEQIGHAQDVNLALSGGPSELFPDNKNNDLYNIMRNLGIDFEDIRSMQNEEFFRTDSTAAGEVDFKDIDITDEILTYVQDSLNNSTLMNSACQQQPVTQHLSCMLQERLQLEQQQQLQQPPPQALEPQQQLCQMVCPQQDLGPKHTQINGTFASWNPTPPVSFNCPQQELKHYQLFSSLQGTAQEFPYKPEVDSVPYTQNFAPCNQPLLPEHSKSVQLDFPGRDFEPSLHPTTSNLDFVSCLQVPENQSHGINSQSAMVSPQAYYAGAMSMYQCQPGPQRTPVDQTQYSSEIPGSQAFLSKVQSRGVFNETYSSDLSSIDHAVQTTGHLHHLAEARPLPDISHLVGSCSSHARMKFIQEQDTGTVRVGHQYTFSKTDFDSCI
UniProt P35869: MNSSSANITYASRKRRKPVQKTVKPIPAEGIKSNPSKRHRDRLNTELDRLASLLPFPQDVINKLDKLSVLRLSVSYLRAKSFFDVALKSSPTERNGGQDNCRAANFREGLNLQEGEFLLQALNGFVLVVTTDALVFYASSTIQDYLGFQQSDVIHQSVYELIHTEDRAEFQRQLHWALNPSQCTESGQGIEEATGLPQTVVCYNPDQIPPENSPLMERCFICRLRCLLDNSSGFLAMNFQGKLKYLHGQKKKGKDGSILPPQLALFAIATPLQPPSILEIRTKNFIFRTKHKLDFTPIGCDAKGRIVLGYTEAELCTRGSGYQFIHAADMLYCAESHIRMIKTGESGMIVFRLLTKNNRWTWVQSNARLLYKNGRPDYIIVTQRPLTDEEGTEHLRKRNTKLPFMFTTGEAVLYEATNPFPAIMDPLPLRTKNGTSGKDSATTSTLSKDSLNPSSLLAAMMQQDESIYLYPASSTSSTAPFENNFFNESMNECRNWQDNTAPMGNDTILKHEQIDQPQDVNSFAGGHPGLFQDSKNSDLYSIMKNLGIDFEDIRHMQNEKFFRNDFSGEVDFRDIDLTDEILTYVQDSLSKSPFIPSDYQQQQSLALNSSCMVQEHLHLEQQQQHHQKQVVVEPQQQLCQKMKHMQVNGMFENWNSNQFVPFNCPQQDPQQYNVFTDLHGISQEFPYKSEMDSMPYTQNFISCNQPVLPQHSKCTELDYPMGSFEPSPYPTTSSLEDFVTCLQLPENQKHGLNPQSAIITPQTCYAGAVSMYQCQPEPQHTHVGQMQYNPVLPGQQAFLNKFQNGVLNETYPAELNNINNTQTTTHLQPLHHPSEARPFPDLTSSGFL

Results are given in words; binding and its absence hold for the method and conditions named. Some entries that bind do so weakly or less than the wild type.

In this assay the target is human Ah receptor nuclear translocator (ARNT) (human) (UniProt P27540). As to the kind of experiment: gel shift assay with in vitro translated proteins and 32P-labeled DRE3 oligonucleotide.

“murine Ah receptor (Ah^b-1 allele), full length, in vitro translated from pmuAhR (from UniProt Q8R4S5 1-805)”: the binding result is “binds”.
With “human Ah receptor, full length (from phuAhR / pCWhuAHR) (from UniProt P35869 1-848)”, the binding entry is “binds”.
